No constants are given. Whether binding was seen depends on the method and setting. Binding seen in cells or lysates may run through a third protein.
B1: endogenous NRF2 of primary neurons (protein, UniProt Q60795 1-597)
chain: MMDLELPPPGLQSQQDMDLIDILWRQDIDLGVSREVFDFSQRQKDYELEKQKKLEKERQEQLQKEQEKAFFAQFQLDEETGEFLPIQPAQHIQTDTSGSASYSQVAHIPKQDALYFEDCMQLLAETFPFVDDHESLALDIPSHAESSVFTAPHQAQSLNSSLEAAMTDLSSIEQDMEQVWQELFSIPELQCLNTENKQLADTTAVPSPEATLTEMDSNYHFYSSISSLEKEVGNCGPHFLHGFEDSFSSILSTDDASQLTSLDSNPTLNTDFGDEFYSAFIAEPSDGGSMPSSAAISQSLSELLDGTIEGCDLSLCKAFNPKHAEGTMEFNDSDSGISLNTSPSRASPEHSVESSIYGDPPPGFSDSEMEELDSAPGSVKQNGPKAQPAHSPGDTVQPLSPAQGHSAPMRESQCENTTKKEVPVSPGHQKAPFTKDKHSSRLEAHLTRDELRAKALHIPFPVEKIINLPVDDFNEMMSKEQFNEAQLALIRDIRRRGKNKVAAQNCRKRKLENIVELEQDLGHLKDEREKLLREKGENDRNLHLLKRRLSTLYLEVFSMLRDEDGKPYSPSEYSLQQTRDGNVFLVPKSKKPDTKKN

Protein sequences, listed by entry. Tags and fused reporters are not part of them.
UniProt Q13049: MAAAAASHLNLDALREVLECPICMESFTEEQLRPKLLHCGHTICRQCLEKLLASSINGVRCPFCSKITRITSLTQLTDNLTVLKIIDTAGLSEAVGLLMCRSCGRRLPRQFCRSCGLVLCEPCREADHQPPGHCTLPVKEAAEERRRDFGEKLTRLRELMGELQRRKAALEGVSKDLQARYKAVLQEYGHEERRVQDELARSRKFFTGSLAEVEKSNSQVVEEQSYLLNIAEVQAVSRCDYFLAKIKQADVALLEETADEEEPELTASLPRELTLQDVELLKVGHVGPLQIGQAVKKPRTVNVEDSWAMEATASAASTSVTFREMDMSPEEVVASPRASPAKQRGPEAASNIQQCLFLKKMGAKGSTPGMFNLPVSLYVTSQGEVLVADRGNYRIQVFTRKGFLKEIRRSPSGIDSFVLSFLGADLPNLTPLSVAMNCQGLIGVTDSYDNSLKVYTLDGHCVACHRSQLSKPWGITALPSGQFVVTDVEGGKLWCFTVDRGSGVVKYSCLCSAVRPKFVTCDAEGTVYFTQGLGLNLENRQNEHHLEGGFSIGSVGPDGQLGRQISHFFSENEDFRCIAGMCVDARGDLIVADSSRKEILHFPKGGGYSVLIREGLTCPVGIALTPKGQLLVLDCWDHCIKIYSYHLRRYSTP
UniProt Q9QUJ7: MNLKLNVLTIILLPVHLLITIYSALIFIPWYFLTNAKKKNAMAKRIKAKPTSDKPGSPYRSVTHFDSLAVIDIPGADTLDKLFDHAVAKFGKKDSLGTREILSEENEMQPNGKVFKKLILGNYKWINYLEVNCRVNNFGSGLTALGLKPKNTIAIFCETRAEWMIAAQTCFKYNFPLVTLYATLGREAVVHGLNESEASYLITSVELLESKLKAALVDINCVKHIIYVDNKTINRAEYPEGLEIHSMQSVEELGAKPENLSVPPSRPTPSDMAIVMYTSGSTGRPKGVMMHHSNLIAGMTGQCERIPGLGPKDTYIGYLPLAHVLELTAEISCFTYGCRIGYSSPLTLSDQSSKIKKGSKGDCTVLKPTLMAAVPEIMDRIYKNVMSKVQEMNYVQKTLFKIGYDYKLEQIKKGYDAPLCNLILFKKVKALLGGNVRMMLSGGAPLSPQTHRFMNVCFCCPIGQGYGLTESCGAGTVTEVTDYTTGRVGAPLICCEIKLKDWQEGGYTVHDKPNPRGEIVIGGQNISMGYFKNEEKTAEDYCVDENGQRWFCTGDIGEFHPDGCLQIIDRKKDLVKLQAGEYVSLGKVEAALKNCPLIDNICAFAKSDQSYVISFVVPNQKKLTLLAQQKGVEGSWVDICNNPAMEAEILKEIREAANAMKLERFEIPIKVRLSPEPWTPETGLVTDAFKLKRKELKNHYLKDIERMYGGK

Molecular target: Flag-TRIM32 (tripartite motif containing 32), expressed in primary neurons (human) (UniProt Q13049)
Experiment: co-IP; primary neurons transfected with Flag-TRIM32; lysate immunoprecipitated with anti-Flag on magnetic beads; immunoblot for endogenous ACSL4, GPX4, xCT and NRF2; in the presence of Baf A1

Molecule | binding
endogenous ACSL4 of primary neurons (from UniProt Q9QUJ7 1-711) | no binding
B1 | no binding
